Results from US5998374A, “Clavaspirins” (The Regents of University of California, priority 1997, dated 1999).
Not every detail of the peptide structures is certain; ends, links or a residue may be inferred. No end group written: not given here.

What was measured:
Type in all cases: cell-based
Candida albicans = assay: radial diffusion assay, antimicrobial activity against Candida albicans; conditions: FIG. 9
Escherichia coli ML-35p = assay: radial diffusion assay, antimicrobial activity against E. coli ML-35p; conditions: pH7.4, pH6.5 and pH5.5; FIG. 5
Staphylococcus aureus = assay: radial diffusion assay, antimicrobial activity against Staphylococcus aureus; conditions: pH5.5; FIG. 10

FLRFIGSVIHGIGHLVHHIGVAL-NH2 [clavaspirin-1, FLRFIGSVIHGIGHLVHHIGVAL*]
antimicrobial activity against C. albicans at 50 mM sodium chloride (Candida albicans): retain most activity | antimicrobial activity against E. coli ML-35p at various pHs (Escherichia coli ML-35p): A similar effect is seen | antimicrobial activity against S. aureus (Staphylococcus aureus): demonstrably better than that of magainin 1 or cecropin P1
